Laboratory results: US20070134261A1, “Effectors of innate immunity” (priority 2001, published 2007)
Part of at least one peptide drawing is inferred or uncertain, most often the ends. No end group written: not given here.

Tested on: human CD14+ monocytes
Experiment: Human 21K DNA microarrays of CD14+ monocytes from PBMC stimulated with SEQ ID NO: 7 and/or LPS (Tables 69-72)
Type: cell-based

KSRIVPAIPVSLL [SEQ ID NO: 7]
Fold Change by LPS + SEQ 7 (gene EIF2C4, human monocytes): 5.7 fold | Fold Change SEQ ID NO: 7 (gene EIF3S7): 2.2 | Fold Change by LPS + SEQ 7 (gene EIF3S7): 2.0 fold | Fold Change SEQ ID NO: 7 (gene EIF3S12): 3.3 | Fold Change by LPS + SEQ 7 (gene EIF3S12): 2.2 fold | Fold Change SEQ ID NO: 7 (gene EIF4EL3): 1.6 | Fold Change by LPS + SEQ 7 (gene EIF5A): 1.6 fold | Fold Change by LPS + SEQ 7 (gene ELF1, human monocytes): 2.3 fold | Fold Change by LPS + SEQ 7 (gene ELMO1): −1.6 fold | Fold Change by LPS + SEQ 7 (gene ELOVL5): −2.0 fold | Fold Change SEQ ID NO: 7 (gene EMD): 2.3 | Fold Change by LPS + SEQ 7 (gene ENSG00000079548): −1.6 fold | Fold Change by LPS + SEQ 7 (gene ENSG00000105849, human monocytes): 19.8 fold | Fold Change SEQ ID NO: 7 (gene ENSG00000106603): 2.0 | Fold Change by LPS + SEQ 7 (gene ENSG00000110900): 2.3 fold | Fold Change by LPS + SEQ 7 (gene ENSG00000115404): −2.0 fold | Fold Change SEQ ID NO: 7 (gene ENSG00000140876): −2.2 | Fold Change by LPS + SEQ 7 (gene ENSG00000142954): −2.1 fold | Fold Change SEQ ID NO: 7 (gene ENSG00000144872): 1.7 | Fold Change by LPS + SEQ 7 (gene ENSG00000144872): 2.2 fold | Fold Change by LPS + SEQ 7 (gene ENSG00000154511): 2.1 fold | Fold Change by LPS + SEQ 7 (gene ENSG00000159752): 1.6 fold | Fold Change by LPS + SEQ 7 (gene ENSG00000159797): −1.5 fold | Fold Change by LPS + SEQ 7 (gene ENSG00000162701, human monocytes): 22.8 fold | Fold Change SEQ ID NO: 7 (gene ENSG00000166737): −1.7 | Fold Change by LPS + SEQ 7 (gene ENSG00000166965): 1.8 fold | Fold Change by LPS + SEQ 7 (gene ENSG00000170714): −1.6 fold | Fold Change by LPS + SEQ 7 (gene ENSG00000177876): −2.2 fold | Fold Change SEQ ID NO: 7 (gene ENSG00000180649): 1.6 | Fold Change SEQ ID NO: 7 (gene ENSG00000184319): −1.6 | Fold Change SEQ ID NO: 7 (gene ENSG00000185305): −1.6 | Fold Change by LPS + SEQ 7 (gene ENSG00000185305): 1.6 fold | Fold Change SEQ ID NO: 7 (gene ENSG00000186409): −1.6 | Fold Change by LPS + SEQ 7 (gene ENSG00000187017): 2.0 fold | Fold Change SEQ ID NO: 7 (gene ENSG00000187700): −1.5 | Fold Change by LPS + SEQ 7 (gene ENSG00000187712): −1.8 fold | Fold Change by LPS + SEQ 7 (gene ENSG00000188719): 1.6 fold | Fold Change SEQ ID NO: 7 (gene ENTPD5): 1.8 | Fold Change by LPS + SEQ 7 (gene EPB41L4B, human monocytes): 13.7 fold | Fold Change by LPS + SEQ 7 (gene EPHB2): 1.8 fold | Fold Change by LPS + SEQ 7 (gene EPHX2): −1.9 fold | Fold Change by LPS + SEQ 7 (gene EPS15): 1.6 fold | Fold Change by LPS + SEQ 7 (gene ERCC6): 2.1 fold | Fold Change by LPS + SEQ 7 (gene EREG, human monocytes): 2.9 fold | Fold Change SEQ ID NO: 7 (gene ETF1): 1.6 | Fold Change SEQ ID NO: 7 (gene ETNK2): 2.9 | Fold Change by LPS + SEQ 7 (gene ETS2): 1.8 fold | Fold Change SEQ ID NO: 7 (gene ETV4): 1.7 | Fold Change by LPS + SEQ 7 (gene ETV4): 2.0 fold | Fold Change by LPS + SEQ 7 (gene ETV5, human monocytes): 2.4 fold | Fold Change SEQ ID NO: 7 (gene EXOSC4): 1.6 | Fold Change SEQ ID NO: 7 (gene EXTL2): −1.6 | Fold Change by LPS + SEQ 7 (gene EZH1): −1.6 fold | Fold Change SEQ ID NO: 7 (gene F11R): 1.5 | Fold Change SEQ ID NO: 7 (gene F13A1): 1.8 | Fold Change by LPS + SEQ 7 (gene F13A1): 1.9 fold | Fold Change by LPS + SEQ 7 (gene FADD): −1.5 fold | Fold Change SEQ ID NO: 7 (gene FADS1): 1.7 | Fold Change by LPS + SEQ 7 (gene FAM31B): −2.0 fold | Fold Change by LPS + SEQ 7 (gene FBN1, human monocytes): 11.8 fold | Fold Change by LPS + SEQ 7 (gene FBXO21): 1.7 fold | Fold Change by LPS + SEQ 7 (gene FBXO32): 1.9 fold | Fold Change SEQ ID NO: 7 (gene FBXW2): 2.0 | Fold Change by LPS + SEQ 7 (gene FBXW5, human monocytes): 6.5 fold | Fold Change by LPS + SEQ 7 (gene FECH): −1.6 fold | Fold Change SEQ ID NO: 7 (gene FER1L3): 2.1 | Fold Change by LPS + SEQ 7 (gene FER1L3): 2.0 fold | Fold Change by LPS + SEQ 7 (gene FEZ2, human monocytes): 25.8 fold | Fold Change by LPS + SEQ 7 (gene FGF10): 1.6 fold | Fold Change SEQ ID NO: 7 (gene FGL1): 1.8 | Fold Change by LPS + SEQ 7 (gene FHL3, human monocytes): 18.4 fold | Fold Change by LPS + SEQ 7 (gene FHOD1): −1.5 fold | Fold Change SEQ ID NO: 7 (gene FIGNL1): 2.6 | Fold Change by LPS + SEQ 7 (gene FIGNL1, human monocytes): 2.3 fold | Fold Change SEQ ID NO: 7 (gene FKBP11): 1.8 | Fold Change SEQ ID NO: 7 (gene FMNL2): 1.6 | Fold Change by LPS + SEQ 7 (gene FMNL2): −1.7 fold | Fold Change SEQ ID NO: 7 (gene FMO5): −1.5 | Fold Change by LPS + SEQ 7 (gene FMR2, human monocytes): 3.0 fold | Fold Change by LPS + SEQ 7 (gene FNDC5): 2.0 fold | Fold Change by LPS + SEQ 7 (gene FOS): −2.3 fold | Fold Change SEQ ID NO: 7 (gene FOXK2): −1.6 | Fold Change by LPS + SEQ 7 (gene FOXP1, human monocytes): 60.4 fold | Fold Change by LPS + SEQ 7 (gene FOXQ1, human monocytes): 4.8 fold | Fold Change by LPS + SEQ 7 (gene FPGT): 1.6 fold | Fold Change by LPS + SEQ 7 (gene FPR1): 1.9 fold | Fold Change SEQ ID NO: 7 (gene FRMD1): 1.7 | Fold Change by LPS + SEQ 7 (gene FRMD1): 1.8 fold | Fold Change by LPS + SEQ 7 (gene FRMD4): 1.5 fold | Fold Change by LPS + SEQ 7 (gene FRS2): 1.9 fold | Fold Change SEQ ID NO: 7 (gene FRZB): 1.7 | Fold Change by LPS + SEQ 7 (gene FTCD, human monocytes): 3.8 fold | Fold Change SEQ ID NO: 7 (gene FUT1): 1.5 | Fold Change SEQ ID NO: 7 (gene FYB): 1.8 | Fold Change SEQ ID NO: 7 (gene FZD10): 1.6 | Fold Change by LPS + SEQ 7 (gene G0S2, human monocytes): 2.7 fold | Fold Change by LPS + SEQ 7 (gene GABRA6): 1.6 fold | Fold Change SEQ ID NO: 7 (gene GALK1): 2.0 | Fold Change by LPS + SEQ 7 (gene GALNT9): 1.9 fold | Fold Change by LPS + SEQ 7 (gene GAPD): −1.6 fold | Fold Change SEQ ID NO: 7 (gene GAS1): −1.8 | Fold Change SEQ ID NO: 7 (gene GBA): 1.9 | Fold Change by LPS + SEQ 7 (gene GBAS): −1.9 fold | Fold Change by LPS + SEQ 7 (gene GBP1): 1.9 fold | Fold Change by LPS + SEQ 7 (gene GBX1): −1.5 fold | Fold Change by LPS + SEQ 7 (gene GCAT): −1.6 fold | Fold Change by LPS + SEQ 7 (gene GCH1, human monocytes): 3.2 fold | Fold Change SEQ ID NO: 7 (gene GCN5L1): 2.1 | Fold Change by LPS + SEQ 7 (gene GCN5L1): 2.2 fold | Fold Change by LPS + SEQ 7 (gene GDA, human monocytes): 2.3 fold | Fold Change by LPS + SEQ 7 (gene GDAP1L1): 2.0 fold | Fold Change by LPS + SEQ 7 (gene GDF9): 1.8 fold | Fold Change by LPS + SEQ 7 (gene GFER, human monocytes): 32.7 fold | Fold Change by LPS + SEQ 7 (gene GGN): 1.7 fold | Fold Change SEQ ID NO: 7 (gene GIMAP2, IMAP2): 1.6 | Fold Change by LPS + SEQ 7 (gene GIT2, human monocytes): 7.2 fold | Fold Change by LPS + SEQ 7 (gene GJA5): 1.5 fold | Fold Change by LPS + SEQ 7 (gene GK): 1.6 fold | Fold Change by LPS + SEQ 7 (gene GLG1): 1.6 fold | Fold Change by LPS + SEQ 7 (gene GLRX): −1.6 fold | Fold Change SEQ ID NO: 7 (gene GLUL): 1.8 | Fold Change SEQ ID NO: 7 (gene GMEB2): 1.7 | Fold Change by LPS + SEQ 7 (gene GMEB2, human monocytes): 3.1 fold | Fold Change SEQ ID NO: 7 (gene GNA13): 1.6 | Fold Change SEQ ID NO: 7 (gene GNA15): 2.1 | Fold Change by LPS + SEQ 7 (gene GNA15): 1.7 fold | Fold Change by LPS + SEQ 7 (gene GNAS): −2.1 fold | Fold Change by LPS + SEQ 7 (gene GNG2, human monocytes): 2.8 fold | Fold Change by LPS + SEQ 7 (gene GNS, human monocytes): 3.7 fold | Fold Change by LPS + SEQ 7 (gene GOLGB1): −1.6 fold | Fold Change by LPS + SEQ 7 (gene GP5): 2.0 fold | Fold Change by LPS + SEQ 7 (gene GPD1, human monocytes): 89.7 fold | Fold Change by LPS + SEQ 7 (gene GPR30, human monocytes): 3.4 fold | Fold Change SEQ ID NO: 7 (gene GPR55): −1.8 | Fold Change by LPS + SEQ 7 (gene GPR174, human monocytes): 12.4 fold | Fold Change SEQ ID NO: 7 (gene GRSF1): −1.6 | Fold Change by LPS + SEQ 7 (gene GRTP1, human monocytes): 5.6 fold | Fold Change by LPS + SEQ 7 (gene GSG1): 1.6 fold | Fold Change SEQ ID NO: 7 (gene GSK3B): 2.6 | Fold Change by LPS + SEQ 7 (gene GSK3B, human monocytes): 3.5 fold | Fold Change SEQ ID NO: 7 (gene GSTK1): 3.2 | Fold Change by LPS + SEQ 7 (gene GSTZ1, human monocytes): 9.3 fold | Fold Change by LPS + SEQ 7 (gene GTF2H1, human monocytes): 12.1 fold | Fold Change by LPS + SEQ 7 (gene GUCY1B3, human monocytes): 5.4 fold | Fold Change by LPS + SEQ 7 (gene H2AFZ): −1.7 fold | Fold Change by LPS + SEQ 7 (gene H2NC000011, human monocytes): 3.5 fold | Fold Change by LPS + SEQ 7 (gene HAPLN1): 1.8 fold | Fold Change by LPS + SEQ 7 (gene HAS1): 1.6 fold | Fold Change SEQ ID NO: 7 (gene HBG1): 2.5 | Fold Change by LPS + SEQ 7 (gene HBG1): 2.0 fold | Fold Change by LPS + SEQ 7 (gene HDAC4): 2.1 fold | Fold Change SEQ ID NO: 7 (gene HDAC9): 1.5 | Fold Change SEQ ID NO: 7 (gene HDC): 1.9 | Fold Change by LPS + SEQ 7 (gene HDC, human monocytes): 2.6 fold | Fold Change by LPS + SEQ 7 (gene HERC2, human monocytes): 3.1 fold | Fold Change SEQ ID NO: 7 (gene HES7): 1.7 | Fold Change SEQ ID NO: 7 (gene HEY2): 2.3 | Fold Change by LPS + SEQ 7 (gene HEY2, human monocytes): 3.0 fold | Fold Change by LPS + SEQ 7 (gene HFE): 1.9 fold | Fold Change by LPS + SEQ 7 (gene HIF1A, human monocytes): 2.5 fold | Fold Change SEQ ID NO: 7 (gene HILS1): 2.2 | Fold Change by LPS + SEQ 7 (gene HINT3): −1.5 fold | Fold Change by LPS + SEQ 7 (gene HIST1H2BN): −1.6 fold | Fold Change by LPS + SEQ 7 (gene HLA-DMA): −1.7 fold | Fold Change by LPS + SEQ 7 (gene HLA-J, human monocytes): 5.6 fold | Fold Change by LPS + SEQ 7 (gene HMG20A): 1.9 fold | Fold Change by LPS + SEQ 7 (gene HMGB1): 1.6 fold | Fold Change by LPS + SEQ 7 (gene HNF4A, human monocytes): 2.6 fold | Fold Change by LPS + SEQ 7 (gene HNRPH2, human monocytes): 6.0 fold | Fold Change by LPS + SEQ 7 (gene HNRPM): −1.7 fold | Fold Change by LPS + SEQ 7 (gene HOOK1, human monocytes): 5.7 fold | Fold Change by LPS + SEQ 7 (gene HOOK2, human monocytes): 19.9 fold | Fold Change SEQ ID NO: 7 (gene HOXD3): 1.5 | Fold Change by LPS + SEQ 7 (gene HPGD): −1.5 fold | Fold Change SEQ ID NO: 7 (gene HPSE): 2.9 | Fold Change by LPS + SEQ 7 (gene HRAS, human monocytes): 2.4 fold | Fold Change SEQ ID NO: 7 (gene HRMT1L3): −1.5 | Fold Change SEQ ID NO: 7 (gene HSD3B1): 2.2 | Fold Change by LPS + SEQ 7 (gene HSD3B1): 1.8 fold | Fold Change SEQ ID NO: 7 (gene HSD17B12): 1.5 | Fold Change by LPS + SEQ 7 (gene HSPA1L): −1.7 fold
